{"source": "the supplement of paper PMC6411743", "experiment_in_all_cases": "NP40-soluble protein abundance relative to vehicle (solubility fold change) (ratio); higher = more soluble protein in presence of AMP-PNP", "key": {"[1]": {"molecular_target": "T1, UniProt P52594 and related entries", "T1 sequence (whole entry)": "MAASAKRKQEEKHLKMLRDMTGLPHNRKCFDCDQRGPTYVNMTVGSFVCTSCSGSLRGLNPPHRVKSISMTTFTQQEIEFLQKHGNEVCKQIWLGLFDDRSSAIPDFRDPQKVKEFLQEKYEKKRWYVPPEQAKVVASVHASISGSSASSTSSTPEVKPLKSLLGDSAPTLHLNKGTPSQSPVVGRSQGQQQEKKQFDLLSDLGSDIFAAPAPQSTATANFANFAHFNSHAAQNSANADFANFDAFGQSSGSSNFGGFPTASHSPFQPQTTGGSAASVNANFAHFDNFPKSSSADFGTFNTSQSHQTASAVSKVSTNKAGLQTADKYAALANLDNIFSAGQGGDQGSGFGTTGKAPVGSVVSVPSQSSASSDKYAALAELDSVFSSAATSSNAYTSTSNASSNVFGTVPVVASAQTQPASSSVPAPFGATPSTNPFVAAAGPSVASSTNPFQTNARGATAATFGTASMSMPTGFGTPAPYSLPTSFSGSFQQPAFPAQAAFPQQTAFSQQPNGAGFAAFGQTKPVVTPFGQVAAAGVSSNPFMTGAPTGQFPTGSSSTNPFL", "method_in_brief": "(§1)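 Eight concentrations, 0.1 to 10 mM, were tested on Jurkat crude lysate for 10 min at room temperature and then 3 min at 37 °C, in three independent experiments. The lysate was solubilised with 0.8% NP40 and benzonase, ultracentrifuged, and the supernatant TMT-labelled for LC-MS/MS. Each value is the fold change against the detergent-processed vehicle in its own replicate, from vsn-normalised intensities.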"}, "[2]": {"molecular_target": "T2, UniProt P52757 and related entries", "T2 sequence (whole entry)": "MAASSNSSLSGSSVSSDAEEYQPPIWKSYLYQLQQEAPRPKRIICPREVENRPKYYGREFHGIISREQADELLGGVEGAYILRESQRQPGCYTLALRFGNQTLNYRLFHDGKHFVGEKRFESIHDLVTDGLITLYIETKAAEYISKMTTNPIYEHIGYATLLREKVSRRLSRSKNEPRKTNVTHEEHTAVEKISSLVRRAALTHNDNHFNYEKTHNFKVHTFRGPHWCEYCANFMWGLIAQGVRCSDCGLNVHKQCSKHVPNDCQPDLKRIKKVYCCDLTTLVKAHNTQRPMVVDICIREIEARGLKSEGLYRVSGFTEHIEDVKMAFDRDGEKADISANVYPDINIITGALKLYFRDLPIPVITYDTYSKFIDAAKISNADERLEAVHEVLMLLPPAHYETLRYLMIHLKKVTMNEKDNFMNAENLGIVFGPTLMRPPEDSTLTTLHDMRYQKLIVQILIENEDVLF", "method_in_brief": "as §1"}, "[3]": {"molecular_target": "T3, UniProt P54725 and related entries", "T3 sequence (whole entry)": "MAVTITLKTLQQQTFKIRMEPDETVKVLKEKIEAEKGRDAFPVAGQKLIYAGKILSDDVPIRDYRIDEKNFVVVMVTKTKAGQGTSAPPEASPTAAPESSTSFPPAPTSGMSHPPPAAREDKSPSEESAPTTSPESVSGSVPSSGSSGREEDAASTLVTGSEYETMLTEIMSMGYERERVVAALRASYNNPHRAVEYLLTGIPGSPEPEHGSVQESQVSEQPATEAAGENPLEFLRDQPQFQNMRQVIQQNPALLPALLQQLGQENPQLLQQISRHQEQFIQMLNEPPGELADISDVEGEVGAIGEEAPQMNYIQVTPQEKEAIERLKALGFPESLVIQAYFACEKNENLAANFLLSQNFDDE", "method_in_brief": "as §1"}, "[4]": {"molecular_target": "T4, UniProt P55036 and related entries", "T4 sequence (whole entry)": "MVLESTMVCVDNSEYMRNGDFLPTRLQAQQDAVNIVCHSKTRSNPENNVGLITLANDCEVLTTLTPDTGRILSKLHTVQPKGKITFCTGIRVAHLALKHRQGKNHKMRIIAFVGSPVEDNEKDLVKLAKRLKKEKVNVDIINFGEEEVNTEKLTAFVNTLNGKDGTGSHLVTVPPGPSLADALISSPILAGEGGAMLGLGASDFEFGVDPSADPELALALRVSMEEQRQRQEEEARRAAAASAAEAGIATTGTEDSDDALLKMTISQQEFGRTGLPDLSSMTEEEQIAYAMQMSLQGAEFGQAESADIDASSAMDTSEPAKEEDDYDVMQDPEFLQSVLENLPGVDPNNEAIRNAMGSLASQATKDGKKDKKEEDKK", "method_in_brief": "as §1"}, "[5]": {"molecular_target": "T5, UniProt P55210 and related entries", "T5 sequence (whole entry)": "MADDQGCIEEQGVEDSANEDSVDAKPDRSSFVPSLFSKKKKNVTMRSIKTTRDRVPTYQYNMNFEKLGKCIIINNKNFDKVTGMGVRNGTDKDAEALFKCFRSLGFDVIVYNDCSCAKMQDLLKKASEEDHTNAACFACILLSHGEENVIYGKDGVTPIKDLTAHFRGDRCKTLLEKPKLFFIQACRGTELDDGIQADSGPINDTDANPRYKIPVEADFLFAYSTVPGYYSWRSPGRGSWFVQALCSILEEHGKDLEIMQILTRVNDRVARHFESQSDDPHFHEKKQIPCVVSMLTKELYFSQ", "method_in_brief": "as §1"}, "[6]": {"molecular_target": "T6, WAS (UniProt P42768)", "T6 sequence (whole entry)": "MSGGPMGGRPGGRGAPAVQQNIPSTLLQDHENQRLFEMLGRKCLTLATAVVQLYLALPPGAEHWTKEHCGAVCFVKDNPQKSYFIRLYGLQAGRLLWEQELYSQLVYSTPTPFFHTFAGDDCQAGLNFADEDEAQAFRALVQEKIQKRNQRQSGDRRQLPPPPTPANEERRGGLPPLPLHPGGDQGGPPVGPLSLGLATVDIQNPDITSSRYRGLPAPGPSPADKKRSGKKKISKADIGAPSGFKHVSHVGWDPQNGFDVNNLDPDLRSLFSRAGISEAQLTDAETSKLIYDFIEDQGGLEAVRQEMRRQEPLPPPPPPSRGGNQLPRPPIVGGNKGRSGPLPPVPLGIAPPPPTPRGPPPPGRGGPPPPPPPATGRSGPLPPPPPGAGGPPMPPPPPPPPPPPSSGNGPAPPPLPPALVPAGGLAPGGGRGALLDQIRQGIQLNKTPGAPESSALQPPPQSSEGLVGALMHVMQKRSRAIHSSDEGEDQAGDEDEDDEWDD", "method_in_brief": "as §1"}}, "note": "± gives the standard deviation of the averaged measurements. Only a part is listed here, and it is no random draw.", "data": [{"compound": "Nc1ncnc2c1ncn2[C@@H]1O[C@H](COP(=O)(O)OP(=O)(O)NP(=O)(O)O)[C@@H](O)[C@H]1O", "note": "[adenylyl imidodiphosphate]", "values": [{"measurement": "NP40-soluble protein abundance", "setting": "[1]; concentration: 8mM", "value": "1.03 ± 0.062"}, {"measurement": "NP40-soluble protein abundance", "setting": "[1]; concentration: 10mM", "value": "1.03 ± 0.068"}, {"measurement": "NP40-soluble protein abundance", "setting": "[2]; concentration: 1mM", "value": "1.02 ± 0.023"}, {"measurement": "NP40-soluble protein abundance", "setting": "[2]; concentration: 2mM", "value": "0.988 ± 0.048"}, {"measurement": "NP40-soluble protein abundance", "setting": "[2]; concentration: 4mM", "value": "0.99 ± 0.056"}, {"measurement": "NP40-soluble protein abundance", "setting": "[2]; concentration: 6mM", "value": "1.001 ± 0.0063"}, {"measurement": "NP40-soluble protein abundance", "setting": "[2]; concentration: 8mM", "value": "1.01 ± 0.025"}, {"measurement": "NP40-soluble protein abundance", "setting": "[2]; concentration: 10mM", "value": "0.992 ± 0.037"}, {"measurement": "NP40-soluble protein abundance", "setting": "[3]; concentration: 1mM", "value": "1.03 ± 0.016"}, {"measurement": "NP40-soluble protein abundance", "setting": "[3]; concentration: 2mM", "value": "1.09 ± 0.072"}, {"measurement": "NP40-soluble protein abundance", "setting": "[3]; concentration: 4mM", "value": "0.975 ± 0.034"}, {"measurement": "NP40-soluble protein abundance", "setting": "[3]; concentration: 6mM", "value": "0.988 ± 0.025"}, {"measurement": "NP40-soluble protein abundance", "setting": "[3]; concentration: 8mM", "value": "0.974 ± 0.017"}, {"measurement": "NP40-soluble protein abundance", "setting": "[3]; concentration: 10mM", "value": "0.957 ± 0.058"}, {"measurement": "NP40-soluble protein abundance", "setting": "[4]; concentration: 1mM", "value": "0.981 ± 0.032"}, {"measurement": "NP40-soluble protein abundance", "setting": "[4]; concentration: 2mM", "value": "0.989 ± 0.043"}, {"measurement": "NP40-soluble protein abundance", "setting": "[4]; concentration: 4mM", "value": "0.968 ± 0.046"}, {"measurement": "NP40-soluble protein abundance", "setting": "[4]; concentration: 6mM", "value": "0.963 ± 0.08"}, {"measurement": "NP40-soluble protein abundance", "setting": "[4]; concentration: 8mM", "value": "0.938 ± 0.05"}, {"measurement": "NP40-soluble protein abundance", "setting": "[4]; concentration: 10mM", "value": "0.97 ± 0.064"}, {"measurement": "NP40-soluble protein abundance", "setting": "[5]; concentration: 1mM", "value": "0.991 ± 0.026"}, {"measurement": "NP40-soluble protein abundance", "setting": "[5]; concentration: 2mM", "value": "0.989 ± 0.022"}, {"measurement": "NP40-soluble protein abundance", "setting": "[5]; concentration: 4mM", "value": "0.96 ± 0.02"}, {"measurement": "NP40-soluble protein abundance", "setting": "[5]; concentration: 6mM", "value": "0.987 ± 0.051"}, {"measurement": "NP40-soluble protein abundance", "setting": "[5]; concentration: 8mM", "value": "0.982 ± 0.057"}, {"measurement": "NP40-soluble protein abundance", "setting": "[5]; concentration: 10mM", "value": "0.984 ± 0.054"}, {"measurement": "NP40-soluble protein abundance", "setting": "[6]; concentration: 1mM", "value": "0.971 ± 0.04"}, {"measurement": "NP40-soluble protein abundance", "setting": "[6]; concentration: 2mM", "value": "1.03 ± 0.049"}, {"measurement": "NP40-soluble protein abundance", "setting": "[6]; concentration: 4mM", "value": "0.957 ± 0.065"}, {"measurement": "NP40-soluble protein abundance", "setting": "[6]; concentration: 6mM", "value": "0.932 ± 0.036"}, {"measurement": "NP40-soluble protein abundance", "setting": "[6]; concentration: 8mM", "value": "0.907 ± 0.022"}, {"measurement": "NP40-soluble protein abundance", "setting": "[6]; concentration: 10mM", "value": "0.924 ± 0.049"}]}]}
